Results on six molecules are retold here after publication PMC9555238, “Interaction of BES1 and LBD37 transcription factors modulates brassinosteroid-regulated root forging response under low nitrogen in arabidopsis”.

By UniProt entry, the sequences of proteins in these tests, tags left out.
UniProt Q9LN63: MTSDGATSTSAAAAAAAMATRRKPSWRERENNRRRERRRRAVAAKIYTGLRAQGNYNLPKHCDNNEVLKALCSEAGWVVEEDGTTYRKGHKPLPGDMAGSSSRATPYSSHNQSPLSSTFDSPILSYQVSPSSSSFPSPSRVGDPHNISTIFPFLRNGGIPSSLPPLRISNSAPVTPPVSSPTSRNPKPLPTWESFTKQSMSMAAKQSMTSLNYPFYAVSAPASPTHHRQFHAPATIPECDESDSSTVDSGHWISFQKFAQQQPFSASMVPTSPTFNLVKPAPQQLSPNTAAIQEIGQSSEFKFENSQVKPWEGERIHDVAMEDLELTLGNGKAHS

Results are given in words; binding and its absence hold for the method and conditions named. For part of these data: In cells and extracts the contact can be indirect. Some results given as binding are weak or reduced against the parent protein; the word gives no strength. Where a sequence is shown, tags or fusion partners need not be part of it.

The target of assay [1] is T1, FLAG-HA-LBD37 (Arabidopsis thaliana) (UniProt Q9FN11).
T1 sequence: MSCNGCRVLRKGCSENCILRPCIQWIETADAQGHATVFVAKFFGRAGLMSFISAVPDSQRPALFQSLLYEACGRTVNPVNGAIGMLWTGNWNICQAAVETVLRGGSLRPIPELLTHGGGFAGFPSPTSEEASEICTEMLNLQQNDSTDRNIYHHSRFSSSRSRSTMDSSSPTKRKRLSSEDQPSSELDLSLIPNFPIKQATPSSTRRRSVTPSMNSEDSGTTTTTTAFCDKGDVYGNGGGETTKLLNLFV
Kind of assay: co-IP; root extracts of 14-day-old 35S:FLAG-HA-LBD37/Col-0 plants; HA agarose beads, IP buffer 10 mM Tris pH 7.5, 0.5% Nonidet P-40, 2 mM EDTA, 150 mM NaCl, 4°C 2 h; detected with anti-BES1 antibody.

Assay [2] concerns the target GBK-BES1 (BRI1 EMS SUPPRESSOR 1 fused with the GAL4 binding domain) (Arabidopsis thaliana) (UniProt Q9LN63). Description: two-hybrid; yeast AH109; BES1 in pGBKT7 as bait, LBDs in pGADT7 as prey; growth on SD/-Leu/-Trp/-His/-Ade at 30°C for 3 days.
The target of assay [3] is BES1 fused with nLUC of luciferase (Arabidopsis thaliana) (UniProt Q9LN63). Description: split reporter; split-luciferase complementation in Nicotiana benthamiana leaves; BES1-nLUC and LBD37-cLUC; 48 h after infiltration, 1 mM D-luciferin.
In assay [4] the target is HIS-BES1 (Arabidopsis thaliana) (UniProt Q9LN63). Description: pull-down; HIS-BES1 and MBP-LBD37 coincubated, pulled down with HIS agarose beads, detected with anti-MBP antibody; in vitro; both purified.

As for “dephosphorylated form of BES1 (endogenous) (from UniProt Q9LN63 1-335)”, in assay [1], the binding result is “binds”.

B1: LBD38 in pGADT7 (yeast two-hybrid prey) (protein, UniProt Q9SN23 1-247)
chain: MSCNGCRVLRKGCSENCILRPCIQWIESPEAQGHATVFVAKFFGRAGLMSFISAVPESQCPALFQSLLYEACGRTVNPVNGAVGLLWTGNWNVCQAAVETVLRGGSLKPIPELLNGGGFAGFPSPTSDEASEICTEMLNLRKADDSGDRNIYHHCRFSSSRSRSRSTASPPKRKRLSSEQQPSSELDLSLIPIYPIKTLPFKEDTPSMYSEESVTTVSFQNNNAGDRYVRCGGGGGGATTKLLNLFA
For B1, the binding result in assay [2] is recorded as “binds”.

B2: GAD-LBD37 (LBD37 fused with the GAL4 activation domain) (protein, UniProt Q9FN11 1-250)
chain: MSCNGCRVLRKGCSENCILRPCIQWIETADAQGHATVFVAKFFGRAGLMSFISAVPDSQRPALFQSLLYEACGRTVNPVNGAIGMLWTGNWNICQAAVETVLRGGSLRPIPELLTHGGGFAGFPSPTSEEASEICTEMLNLQQNDSTDRNIYHHSRFSSSRSRSTMDSSSPTKRKRLSSEDQPSSELDLSLIPNFPIKQATPSSTRRRSVTPSMNSEDSGTTTTTTAFCDKGDVYGNGGGETTKLLNLFV
As to B2, the binding entry in assay [2] was “binds”.

B3: LBD37 fused with cLUC of luciferase (protein, UniProt Q9FN11 1-250)
chain: MSCNGCRVLRKGCSENCILRPCIQWIETADAQGHATVFVAKFFGRAGLMSFISAVPDSQRPALFQSLLYEACGRTVNPVNGAIGMLWTGNWNICQAAVETVLRGGSLRPIPELLTHGGGFAGFPSPTSEEASEICTEMLNLQQNDSTDRNIYHHSRFSSSRSRSTMDSSSPTKRKRLSSEDQPSSELDLSLIPNFPIKQATPSSTRRRSVTPSMNSEDSGTTTTTTAFCDKGDVYGNGGGETTKLLNLFV
As for B3, the binding result in assay [3] is given as “binds”.

B4: MBP-LBD37 (protein, UniProt Q9FN11 1-250)
chain: MSCNGCRVLRKGCSENCILRPCIQWIETADAQGHATVFVAKFFGRAGLMSFISAVPDSQRPALFQSLLYEACGRTVNPVNGAIGMLWTGNWNICQAAVETVLRGGSLRPIPELLTHGGGFAGFPSPTSEEASEICTEMLNLQQNDSTDRNIYHHSRFSSSRSRSTMDSSSPTKRKRLSSEDQPSSELDLSLIPNFPIKQATPSSTRRRSVTPSMNSEDSGTTTTTTAFCDKGDVYGNGGGETTKLLNLFV
For B4, the binding result in assay [4] is “binds”.

B5: LBD39 in pGADT7 (yeast two-hybrid prey) (protein, UniProt Q9SZE8 1-240)
chain: MSCNGCRVLRKGCSETCILRPCLQWIESAESQGHATVFVAKFFGRAGLMSFISSVPELQRPALFQSLLFEACGRTVNPVNGAVGMLWTRNWHVCQAAVETVLRGGTLRPISDLLESPSLMISCDESSEIWHQDVSRNQTHHCRFSTSRSTTEMKDSLVNRKRLKSDSDLDLQVNHGLTLTAPAVPVPFLPPSSFCKVVKGDRPGSPSEESVTTSCWENGMRGDNKQKRNKGEKKLLNLFV
As for B5, the binding entry in assay [2] was “binds”.
